These are yes or no findings as the source states them, for the method shown. In cells and extracts the contact can be indirect. Some binding calls cover weakened binding; strength is not graded here.
Molecular target: T1, LYNX2 protein (LYPD1) (mouse (endogenous in amygdala)) (UniProt Q8BLC3)
T1 sequence: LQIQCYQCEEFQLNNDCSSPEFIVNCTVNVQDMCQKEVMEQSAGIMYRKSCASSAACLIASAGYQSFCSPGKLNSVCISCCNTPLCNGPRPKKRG
Experiment: co-IP; Dynabeads A with rabbit anti-lypd1 (LYNX2) antibody; BLA homogenates (one sample whole brain) of WT mice at 13 mg/mL in 50 mM Tris, 150 mM NaCl, 0.75% Triton-X 100, protease inhibitors; 3 days at RT; Western blot with anti-α7 nAChR antibody; Lynx2KO extracts as negative control

The chains behind the UniProt entries cited, without tags or fusion partners. Residues count along the entry.
UniProt P49582, residues 23-502: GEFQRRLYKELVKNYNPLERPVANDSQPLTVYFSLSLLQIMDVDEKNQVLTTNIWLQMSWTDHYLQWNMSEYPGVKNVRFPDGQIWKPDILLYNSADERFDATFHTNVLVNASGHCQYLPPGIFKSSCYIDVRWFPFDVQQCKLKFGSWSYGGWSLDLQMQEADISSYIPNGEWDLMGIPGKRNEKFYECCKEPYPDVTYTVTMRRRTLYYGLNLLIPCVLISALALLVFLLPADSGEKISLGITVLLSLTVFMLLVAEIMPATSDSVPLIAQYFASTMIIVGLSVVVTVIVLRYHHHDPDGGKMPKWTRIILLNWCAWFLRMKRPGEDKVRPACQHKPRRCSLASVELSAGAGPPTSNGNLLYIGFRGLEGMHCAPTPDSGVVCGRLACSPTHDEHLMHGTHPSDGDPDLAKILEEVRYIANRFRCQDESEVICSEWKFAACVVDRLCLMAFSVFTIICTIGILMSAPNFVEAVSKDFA

- binding: binds
Substance: α7 nicotinic acetylcholine receptor subunit (from UniProt P49582 23-502)
